From PubChem BioAssay (EPA / NIEHS)
Inconclusive means that the source gave no clear call. Such entries were picked first, then a sample of the others. Where the call is inconclusive, the potency comes from a doubtful curve fit. The source made the active and inactive calls. How the source made its calls: active means hit-call score of the fitted dose curve at least 0.9, where 1 is the maximum; inconclusive means response in the unintended direction; inactive means score below 0.9.

Test: Tanguay_ZF_120hpf_SOMI_legacy: (Legacy) Oregon State University Tanguay Lab 120 Hour Post-fertilization zebrafish Assay for Somite Malformation (AID 2283647)
Outline: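 Somitogenesis defects are recorded as binary calls in whole larvae at 120 hpf after continuous static chemical exposure starting at 6 hpf in dechorionated 5D embryos. DMSO serves as negative control and baseline.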

Row | Compound | outcome | AC50
1 | CCN(CC)C(=O)c1cc(S(=O)(=O)Cc2ccccc2)c(N2CCC(c3ccccc3)CC2)cc1N(CC)CCN(C)C | inactive | 
2 | NC1CCCCC1 |  | inconclusive: 3.97 µM
3 | O=c1[nH]cc(F)c(=O)[nH]1 | inactive | 
4 | CC(=O)S[C@@H]1CC2=CC(=O)CC[C@]2(C)[C@H]2CC[C@@]3(C)[C@@H](CC[C@@]34CCC(=O)O4)[C@H]12 |  | inconclusive: 191 µM
5 | O=C(O)c1ccccc1C(=O)OCc1ccccc1 |  | inconclusive: 156 µM
6 | O=C=NCCCCCCN=C=O |  | inconclusive: 86.7 µM
7 | COC(=O)CCC(=O)OC |  | inconclusive: 1.78 µM
8 | c1ccc2[nH]c(-c3cscn3)nc2c1 |  | inconclusive: 168 µM
9 | CSc1ccc(Oc2ccc(S(N)(=O)=O)cc2CN(C)C)cc1C | inactive | 
10 | CC1=CC(=O)/C(=C(/C)O)C(=O)O1 |  | inconclusive: 31.9 µM
11 | CC[C@H](C)[C@@H](C(=O)O)n1sc2ccccc2c1=O | inactive | 
12 | CCOC(=O)COc1ccc2c(c1)CC(NCC(O)c1cccc(Cl)c1)CC2 (centres undefined) | inactive | 
13 | COc1cccc([C@H](O)C2CCN(CCc3ccc(F)cc3)CC2)c1OC | inactive | 
14 | CCc1c(C(=O)NN2CCCCC2)nn(-c2ccc(Cl)cc2Cl)c1-c1ccc(Br)cc1 | inactive | 
15 | O=C1CCC(C2CCCCC2)CC1 |  | inconclusive: 9.28 µM
16 | O=c1ccc2ccccc2o1 | inactive | 
17 | C#C[C@]1(O)CC[C@H]2[C@@H]3CCC4=CC(=O)CC[C@@H]4[C@H]3CC[C@@]21C |  | inconclusive: 9.58 µM
18 | O=CCCCC=O | inactive | 
19 | O=C(c1ccccc1)C1CCCCC1 | inactive | 

Random excerpt: 2 entries already listed, in no set order.
Row | Compound | outcome | AC50
8 | c1ccc2[nH]c(-c3cscn3)nc2c1 |  | inconclusive: 168 µM
13 | COc1cccc([C@H](O)C2CCN(CCc3ccc(F)cc3)CC2)c1OC | inactive | 
